The numbers were not newly measured in patent US20030185888A1, “Volume efficient controlled release dosage form” (priority 2002, published 2003), which cites them from elsewhere.

Structures are written as SMILES.

The conditions of the data set: in vivo.

Regarding `COC(=O)C1=C(C)NC(C)=C(C(=O)OC)C1c1ccccc1[N+](=O)[O-]` [Nifedipine, nifedipine], the biological half-life entry is on record as “about 2 hours”.
